Further values from the same series stand in other lists.
Test: Continuous infusion study pharmacokinetics (plasma)
Format: in vivo, human
Settings: Rate 1 mg/h, individual subjects, listed as EMD 121974
Procedure: Patients with solid tumors received a continuous infusion of 1 mg/h, 2 mg/h, 4 mg/h, 8 mg/h or 12 mg/h. with a weekly change of infusion bag.
Blood samples were taken on Day 1 (first dose) at pre-dose and 2 h after start of infusion and then weekly just before change of infusion bag and 2 hours thereafter for the first 4 weeks.
The following pharmacokinetic parameters were derived at Merck KGaA. Darmstadt, Germany, by mathematical methods using Kinetica Version 4.1.1.
CL the total body clearance of EMD 121974 from plasma Css plasma concentration at steady state ke elimination rate constant Rate infusion rate t1/2, half life V Volume of distribution
Css, the plasma concentration at steady state, has been estimated by the arithmetic mean of all concentration values from time point 168 h to 506 h per patient.
From Css and t1/2 the PK parameters CL, ke and V were calculated as follows: […]

SMILES: CC(C)[C@H]1C(=O)N[C@@H](CCCN=C(N)N)C(=O)NCC(=O)N[C@@H](CC(=O)O)C(=O)N[C@H](Cc2ccccc2)C(=O)N1C [Cilengitide, cyclo-(Arg-Gly-Asp-DPhe-NMeVal)]
- EMD 121974 Concentrations (2 h): 35.40 ng/mL
- EMD 121974 Concentrations (168 h): 72.20 ng/mL
- EMD 121974 Concentrations (170 h): 33.40 ng/mL
- EMD 121974 Concentrations (336 h): 130.00 ng/mL
- EMD 121974 Concentrations (338 h): 97.90 ng/mL

Reference: patent US20120130146A1, “CONTINUOUS ADMINISTRATION OF CILENGITIDE IN CANCER TREATMENTS” (Merck Patent GmbH, priority 2009, published 2012)
